# Data taken from PubChem BioAssay AID540276 (National Center for Advancing Translational Sciences (NCATS), 2011).
# Out of some 300,000 compounds screened, about 5,400 (1.8%) were called active. Inconclusive means that the source gave no clear call. Such entries were picked first, then a sample of the others. Calls come from the whole dose curve; tested in HEK293 cells. Potencies beside an inconclusive call are fits to weak or partial responses and may not hold up.
# Experiment: qHTS for inhibitors of binding or entry into cells for Marburg Virus
# Conditions: Marburg virus pseudotyped entry inhibition, cell reporter; series mostly up to 37.8 µM
# Potency is the fitted concentration of half-maximal effect.
row,SMILES,Potency
1,COc1ccc(OC)c(S(=O)(=O)ON2C(=O)c3ccccc3C2=O)c1,"inconclusive: 2.24 µM [inhibitor, partial curve, poor fit]"
2,CSc1ccc(/C=N/N(C)S(=O)(=O)c2ccc(C)cc2)cc1,"inconclusive: 22.4 µM [inhibitor, partial curve, poor fit]"
3,CCCCOc1ccc(CSC(CC(=O)O)C(=O)O)cc1 (stereo unspecified),inactive
4,CCn1cc([N+](=O)[O-])c(C(=O)N2N=C(c3ccc4ccccc4c3)CC2c2cc(Br)ccc2O)n1 (stereo unspecified),"inconclusive: 17.8 µM [inhibitor, single point]"
5,CCc1ccc(NC(=O)COCc2cc(-c3ccc(F)cc3)on2)cc1,inactive
6,O=C(CSc1nc(-c2cccs2)cc(C(F)(F)F)n1)NCc1ccco1,inactive
7,Cc1ccc(-c2csc(N(CCCN(C)C)C(=O)c3ccco3)n2)cc1,"inconclusive: 3.16 µM [inhibitor, single point]"
8,Nn1c(=O)c2ccccc2n2c(SCc3ccc(C(F)(F)F)cc3)nnc12,inactive
9,Cc1ccc(C(=O)N(c2ccccc2)C2CC(C)N(C(=O)c3ccco3)c3ccccc32)cc1 (stereo unspecified),"inconclusive: 28.2 µM [inhibitor, partial curve, poor fit]"
10,Nc1c(-c2ccccc2)cnn1-c1cccc([N+](=O)[O-])c1,inactive
11,O=S(=O)(c1ccccc1)c1nc(-c2ccccc2)oc1N1CCN(c2cccc(Cl)c2)CC1,inactive
12,CCCC(C)C1(CC)C(=O)NC(=Nc2ccc(OC)cc2)NC1=O (stereo unspecified),inactive
13,Cc1c(Cl)cccc1NC(=O)C(C)N(c1ccccc1)S(C)(=O)=O (stereo unspecified),inactive
14,CCc1ccc(NC(=O)N(Cc2cn(CC)c3ccccc23)C2CCCCC2)cc1,"inconclusive: 35.5 µM [inhibitor, single point]"
15,CCOC(=O)C1(CCCc2ccccc2)CCN(C(=O)CSC)CC1,"inconclusive: 8.91 µM [inhibitor, partial curve, poor fit]"
16,CCCCN(CC)CCCNC(=O)C1c2ccccc2C(=O)N(C)C1c1cn(C)c2ccccc12 (stereo unspecified),"inconclusive: 20.6 µM [inhibitor, single point]"
17,Cc1cc(C)cc(NC(=O)c2ncn(-c3ccccc3)n2)c1,inactive
18,Cn1ccnc1SCC(=O)Nc1ccc(Oc2ccccc2)cc1,inactive
19,Cc1ccc(OCC(=O)NNC(=O)c2ccccc2OCc2c(C)noc2C)cc1,"inconclusive: 5.62 µM [inhibitor, single point]"
20,COc1cc(OC)cc(-c2cc3nc(C)c(CCC(=O)Nc4ccc(F)c(Cl)c4)c(C)n3n2)c1,"inconclusive: 1.26 µM [inhibitor, full curve, poor fit]"
21,CCOC(=O)/C(C#N)=C1/C=C(C)NC(c2ccccc2O)=N1,"inconclusive: 16.4 µM [inhibitor, partial curve]"
22,O=C1c2[nH]nc(-c3ccccc3O)c2C(c2ccc(Cl)cc2)N1CCc1ccccc1 (stereo unspecified),"inconclusive: 35.5 µM [inhibitor, single point]"
23,CCCCn1c(N)c(N(CCC(C)C)C(=O)c2cccc(S(=O)(=O)N3CCN(C)CC3)c2)c(=O)[nH]c1=O,"inconclusive: 10 µM [activator, partial curve, poor fit]"

row,SMILES,Potency
1,CCOC(=O)c1c(C)oc2c1c(C(c1ccccc1)N1CCOCC1)c(O)c1ccccc12 (stereo unspecified),"inconclusive: 29.1 µM [inhibitor, single point]"
2,COc1nc(C)ccc1-c1noc(-c2cccs2)n1,active: 11.2 µM
3,c1ccc(C2Nc3ccccc3C3OCCCC23)cc1 (stereo unspecified),"inconclusive: 35.5 µM [inhibitor, single point]"
4,CC(C)c1ccc(NC(=O)C(NS(=O)(=O)c2ccc3c(c2)CCC(=O)N3)c2ccccc2)cc1 (stereo unspecified),inactive
5,CCOCN(C(=O)Cn1c(CC(C)C)nc2ccccc21)c1c(C)cccc1CC,"inconclusive: 3.98 µM [inhibitor, partial curve]"
6,CCCn1c(Cc2ccccc2)n[nH]c1=S,inactive
7,COc1ccc(-c2cc(C(=O)N3CCOCC3)no2)cc1,"inconclusive: 15.8 µM [inhibitor, partial curve, poor fit]"
8,O=S(=O)(/N=C(\Sc1ccc(Cl)cc1)c1ccccc1)c1ccccc1,inactive
9,CCc1cc(C(c2ccncc2)N2CCN(C)CC2)c(NC(=O)c2ccccc2)s1 (stereo unspecified),"inconclusive: 23.1 µM [inhibitor, partial curve, poor fit]"
10,Cc1cc2nc(-c3cccc(NC(=O)c4ccc(Br)o4)c3C)oc2cc1C,inactive
11,CC(C)(C)C1CCC(C(=O)OCC(=O)c2ccc[nH]2)CC1 (stereo unspecified),inactive
12,C#CCN(Cc1ccco1)C(=O)c1cc(COc2ccc(F)cc2Cl)on1,inactive
13,CCOC(=O)c1ccc(NC(=O)c2sc3nc4c(cc3c2N)N2CCC4CC2)cc1,"inconclusive: 0.316 µM [inhibitor, full curve, poor fit]"
14,COC(=O)c1ccc(NC(=O)c2cccc(NC(=O)c3ccco3)c2)cc1,"inconclusive: 1.41 µM [inhibitor, partial curve, poor fit]"
15,Cc1ccc(S(=O)(=O)N2CCCCC2CCNC(=O)C(=O)NCc2ccccc2C)cc1 (stereo unspecified),"inconclusive: 12.6 µM [inhibitor, partial curve, poor fit]"
16,COc1ccc(-c2[nH]c(-c3cccc(OC)c3)nc2SCC(=O)NCc2ccco2)cc1,inactive
17,CC1CC(C)(C)CC2(C1)NC(=O)N(CC(=O)OCC(=O)Nc1cc(S(=O)(=O)N3CCCCC3)ccc1Cl)C2=O (stereo unspecified),inactive
18,COc1ccc(OC)c(NC(=O)CSc2nncc3ccc(OC)c(OC)c23)c1,"inconclusive: 0.891 µM [inhibitor, partial curve, poor fit]"
19,CC(=O)OC1CCC2(C)C3=CCC4(C)C(C(C)=O)=CCC4C3CCC2C1 (stereo unspecified),inactive
20,Cc1ccc(C(=O)O/N=C(\N)c2ccccn2)cc1C,active: 0.708 µM
21,Cc1ccc(-c2nc(CN(C)C3CCOC3)c(C)o2)s1 (stereo unspecified),inactive
22,c1ccc(Nc2c(-c3ccco3)nc3ccccn23)cc1,"inconclusive: 25.1 µM [activator, single point]"
23,CCc1nnc(NC(=O)CCC(=O)N2CCN(Cc3ccc(Cl)cc3)CC2)s1,inactive

# In the list so far, 2 have a nitro group on carbon.
row,SMILES,Potency
4,CCn1cc([N+](=O)[O-])c(C(=O)N2N=C(c3ccc4ccccc4c3)CC2c2cc(Br)ccc2O)n1 (stereo unspecified),"inconclusive: 17.8 µM [inhibitor, single point]"
10,Nc1c(-c2ccccc2)cnn1-c1cccc([N+](=O)[O-])c1,inactive
